Reference: the supplement of paper PMC11006884
Only a part is listed here, and it is no random draw. This is a noisy data set.

Amino acid sequences for entries named in this document (tags omitted). A change or cut given only in a name is not applied to a line headed by its entry.
UniProt P07919: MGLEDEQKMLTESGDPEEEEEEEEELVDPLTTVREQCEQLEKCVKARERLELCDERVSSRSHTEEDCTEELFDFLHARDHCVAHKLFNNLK
UniProt P13667: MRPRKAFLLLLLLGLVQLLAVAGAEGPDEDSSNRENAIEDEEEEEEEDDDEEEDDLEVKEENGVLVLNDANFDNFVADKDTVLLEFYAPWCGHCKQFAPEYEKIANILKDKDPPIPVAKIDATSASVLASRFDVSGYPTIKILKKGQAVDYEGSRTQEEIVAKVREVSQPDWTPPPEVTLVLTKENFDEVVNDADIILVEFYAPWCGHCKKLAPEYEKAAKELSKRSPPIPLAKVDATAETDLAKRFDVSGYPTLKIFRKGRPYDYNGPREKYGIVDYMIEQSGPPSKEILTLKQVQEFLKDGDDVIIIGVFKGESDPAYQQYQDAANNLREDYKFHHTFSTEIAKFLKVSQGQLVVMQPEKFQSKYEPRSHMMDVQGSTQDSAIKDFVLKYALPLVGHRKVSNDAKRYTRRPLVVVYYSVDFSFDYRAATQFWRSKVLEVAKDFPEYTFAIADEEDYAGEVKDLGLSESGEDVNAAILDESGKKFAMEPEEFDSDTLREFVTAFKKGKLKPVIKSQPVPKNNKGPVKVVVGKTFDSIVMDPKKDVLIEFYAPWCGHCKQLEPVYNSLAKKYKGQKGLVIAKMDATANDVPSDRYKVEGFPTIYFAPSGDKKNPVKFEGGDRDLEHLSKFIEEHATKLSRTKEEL
UniProt P12814, whole entry, looked up: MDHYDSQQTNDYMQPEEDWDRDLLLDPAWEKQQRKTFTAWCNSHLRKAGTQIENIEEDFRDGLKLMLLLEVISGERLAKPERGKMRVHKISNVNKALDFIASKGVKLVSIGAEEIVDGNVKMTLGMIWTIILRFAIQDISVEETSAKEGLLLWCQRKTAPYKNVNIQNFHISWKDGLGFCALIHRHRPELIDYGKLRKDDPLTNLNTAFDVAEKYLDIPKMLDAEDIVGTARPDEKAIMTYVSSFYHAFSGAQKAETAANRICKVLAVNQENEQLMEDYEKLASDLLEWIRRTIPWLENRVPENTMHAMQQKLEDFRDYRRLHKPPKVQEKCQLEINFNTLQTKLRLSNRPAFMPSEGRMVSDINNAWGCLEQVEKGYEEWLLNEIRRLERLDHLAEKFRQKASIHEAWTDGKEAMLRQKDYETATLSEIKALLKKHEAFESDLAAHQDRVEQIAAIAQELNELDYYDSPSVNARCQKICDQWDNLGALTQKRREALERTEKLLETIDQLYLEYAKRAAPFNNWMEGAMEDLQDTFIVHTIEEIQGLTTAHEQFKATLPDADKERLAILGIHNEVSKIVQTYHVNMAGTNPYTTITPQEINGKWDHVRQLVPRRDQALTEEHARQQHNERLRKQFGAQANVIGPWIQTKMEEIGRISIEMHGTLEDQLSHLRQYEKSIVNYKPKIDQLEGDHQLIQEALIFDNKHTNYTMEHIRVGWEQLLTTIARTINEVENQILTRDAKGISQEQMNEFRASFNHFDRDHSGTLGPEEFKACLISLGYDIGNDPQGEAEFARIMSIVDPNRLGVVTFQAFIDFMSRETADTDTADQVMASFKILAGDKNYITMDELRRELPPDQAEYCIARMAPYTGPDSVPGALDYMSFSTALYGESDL
UniProt P14618, whole entry, looked up: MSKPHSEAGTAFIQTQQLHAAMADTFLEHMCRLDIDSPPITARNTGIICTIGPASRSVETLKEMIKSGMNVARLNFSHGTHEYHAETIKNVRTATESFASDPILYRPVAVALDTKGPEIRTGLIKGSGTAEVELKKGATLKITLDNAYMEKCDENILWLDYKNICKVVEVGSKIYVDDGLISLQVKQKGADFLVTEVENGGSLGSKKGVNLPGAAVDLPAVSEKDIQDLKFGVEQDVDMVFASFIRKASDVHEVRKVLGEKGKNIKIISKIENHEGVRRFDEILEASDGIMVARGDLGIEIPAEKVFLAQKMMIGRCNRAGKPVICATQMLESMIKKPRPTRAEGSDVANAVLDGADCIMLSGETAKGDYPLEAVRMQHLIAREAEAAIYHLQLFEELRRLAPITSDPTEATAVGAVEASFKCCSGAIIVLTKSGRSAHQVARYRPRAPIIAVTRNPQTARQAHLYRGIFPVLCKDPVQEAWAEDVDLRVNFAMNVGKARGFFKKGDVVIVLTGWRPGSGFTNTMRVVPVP
UniProt P11413, whole entry, looked up: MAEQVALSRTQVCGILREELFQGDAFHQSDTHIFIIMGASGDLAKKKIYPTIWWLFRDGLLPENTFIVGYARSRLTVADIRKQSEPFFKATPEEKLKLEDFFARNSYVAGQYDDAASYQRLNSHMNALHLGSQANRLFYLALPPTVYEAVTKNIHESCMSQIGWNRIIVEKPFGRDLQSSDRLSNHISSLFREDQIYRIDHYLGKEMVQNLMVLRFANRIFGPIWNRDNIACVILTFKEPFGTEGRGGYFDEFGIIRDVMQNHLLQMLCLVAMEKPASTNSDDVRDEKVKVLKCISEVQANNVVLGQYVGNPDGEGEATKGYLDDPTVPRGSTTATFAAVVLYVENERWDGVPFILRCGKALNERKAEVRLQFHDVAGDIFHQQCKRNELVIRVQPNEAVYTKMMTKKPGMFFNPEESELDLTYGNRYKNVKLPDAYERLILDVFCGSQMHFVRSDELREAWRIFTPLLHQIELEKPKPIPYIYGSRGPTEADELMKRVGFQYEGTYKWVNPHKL
UniProt P08243: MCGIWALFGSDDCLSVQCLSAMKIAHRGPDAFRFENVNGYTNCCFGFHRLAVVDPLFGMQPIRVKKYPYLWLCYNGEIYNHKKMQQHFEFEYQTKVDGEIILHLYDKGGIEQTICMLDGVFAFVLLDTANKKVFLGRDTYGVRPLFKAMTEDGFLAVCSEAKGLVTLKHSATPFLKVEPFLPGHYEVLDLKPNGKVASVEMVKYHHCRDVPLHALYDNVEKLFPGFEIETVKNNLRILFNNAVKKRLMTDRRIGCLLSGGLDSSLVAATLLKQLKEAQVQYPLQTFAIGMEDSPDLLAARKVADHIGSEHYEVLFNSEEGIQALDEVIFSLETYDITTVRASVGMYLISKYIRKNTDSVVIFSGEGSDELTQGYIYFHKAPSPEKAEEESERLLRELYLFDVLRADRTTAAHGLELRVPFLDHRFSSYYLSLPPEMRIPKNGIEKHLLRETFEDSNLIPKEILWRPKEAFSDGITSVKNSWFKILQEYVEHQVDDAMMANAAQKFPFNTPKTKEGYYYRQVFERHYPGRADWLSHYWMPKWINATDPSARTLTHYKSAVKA
UniProt P13716: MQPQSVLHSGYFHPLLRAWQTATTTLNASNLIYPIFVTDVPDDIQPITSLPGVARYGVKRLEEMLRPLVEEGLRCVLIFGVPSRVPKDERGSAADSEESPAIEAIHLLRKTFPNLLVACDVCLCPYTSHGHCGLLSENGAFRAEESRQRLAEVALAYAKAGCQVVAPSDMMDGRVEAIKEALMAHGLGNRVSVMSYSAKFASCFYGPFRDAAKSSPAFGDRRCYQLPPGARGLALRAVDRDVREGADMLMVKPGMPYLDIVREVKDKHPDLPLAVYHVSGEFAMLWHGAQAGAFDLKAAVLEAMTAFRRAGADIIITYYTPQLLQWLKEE
UniProt P11586, whole entry, looked up: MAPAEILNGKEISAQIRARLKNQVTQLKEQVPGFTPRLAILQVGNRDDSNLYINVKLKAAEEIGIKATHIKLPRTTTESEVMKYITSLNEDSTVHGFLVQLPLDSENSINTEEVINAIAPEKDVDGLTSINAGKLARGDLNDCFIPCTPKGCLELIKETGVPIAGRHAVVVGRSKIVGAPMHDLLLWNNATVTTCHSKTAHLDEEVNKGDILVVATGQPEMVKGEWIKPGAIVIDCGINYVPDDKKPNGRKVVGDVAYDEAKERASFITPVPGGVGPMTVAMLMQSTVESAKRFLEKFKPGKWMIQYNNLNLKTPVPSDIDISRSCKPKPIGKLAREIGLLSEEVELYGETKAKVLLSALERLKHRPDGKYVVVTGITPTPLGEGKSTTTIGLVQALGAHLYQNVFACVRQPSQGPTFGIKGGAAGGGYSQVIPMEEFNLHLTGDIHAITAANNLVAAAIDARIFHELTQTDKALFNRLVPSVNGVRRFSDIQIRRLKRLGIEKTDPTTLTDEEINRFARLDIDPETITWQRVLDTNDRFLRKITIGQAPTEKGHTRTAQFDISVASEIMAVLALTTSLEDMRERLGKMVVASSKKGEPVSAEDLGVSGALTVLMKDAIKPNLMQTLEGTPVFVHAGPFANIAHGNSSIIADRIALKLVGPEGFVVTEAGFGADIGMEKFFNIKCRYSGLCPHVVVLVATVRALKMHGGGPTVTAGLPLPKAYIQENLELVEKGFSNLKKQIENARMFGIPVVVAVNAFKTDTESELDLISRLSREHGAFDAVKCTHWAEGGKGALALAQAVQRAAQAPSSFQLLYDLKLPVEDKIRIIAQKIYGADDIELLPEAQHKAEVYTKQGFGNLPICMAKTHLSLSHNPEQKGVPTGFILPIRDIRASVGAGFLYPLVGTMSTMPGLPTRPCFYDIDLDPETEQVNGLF
UniProt P14866: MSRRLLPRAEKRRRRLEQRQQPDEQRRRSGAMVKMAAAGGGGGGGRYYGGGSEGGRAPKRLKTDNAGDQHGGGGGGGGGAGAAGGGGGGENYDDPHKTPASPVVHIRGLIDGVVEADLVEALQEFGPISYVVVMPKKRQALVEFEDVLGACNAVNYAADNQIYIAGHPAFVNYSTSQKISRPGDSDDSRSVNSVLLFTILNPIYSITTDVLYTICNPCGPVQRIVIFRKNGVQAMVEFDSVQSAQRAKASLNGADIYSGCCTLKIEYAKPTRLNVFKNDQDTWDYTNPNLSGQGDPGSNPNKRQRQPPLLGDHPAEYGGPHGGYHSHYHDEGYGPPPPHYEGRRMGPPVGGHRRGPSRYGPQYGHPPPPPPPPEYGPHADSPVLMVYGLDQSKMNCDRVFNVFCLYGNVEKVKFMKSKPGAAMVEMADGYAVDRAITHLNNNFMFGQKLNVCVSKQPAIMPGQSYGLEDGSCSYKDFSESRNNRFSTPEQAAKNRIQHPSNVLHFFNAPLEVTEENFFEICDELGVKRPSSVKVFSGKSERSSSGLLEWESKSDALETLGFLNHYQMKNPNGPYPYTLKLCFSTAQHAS
UniProt P14625, whole entry, looked up: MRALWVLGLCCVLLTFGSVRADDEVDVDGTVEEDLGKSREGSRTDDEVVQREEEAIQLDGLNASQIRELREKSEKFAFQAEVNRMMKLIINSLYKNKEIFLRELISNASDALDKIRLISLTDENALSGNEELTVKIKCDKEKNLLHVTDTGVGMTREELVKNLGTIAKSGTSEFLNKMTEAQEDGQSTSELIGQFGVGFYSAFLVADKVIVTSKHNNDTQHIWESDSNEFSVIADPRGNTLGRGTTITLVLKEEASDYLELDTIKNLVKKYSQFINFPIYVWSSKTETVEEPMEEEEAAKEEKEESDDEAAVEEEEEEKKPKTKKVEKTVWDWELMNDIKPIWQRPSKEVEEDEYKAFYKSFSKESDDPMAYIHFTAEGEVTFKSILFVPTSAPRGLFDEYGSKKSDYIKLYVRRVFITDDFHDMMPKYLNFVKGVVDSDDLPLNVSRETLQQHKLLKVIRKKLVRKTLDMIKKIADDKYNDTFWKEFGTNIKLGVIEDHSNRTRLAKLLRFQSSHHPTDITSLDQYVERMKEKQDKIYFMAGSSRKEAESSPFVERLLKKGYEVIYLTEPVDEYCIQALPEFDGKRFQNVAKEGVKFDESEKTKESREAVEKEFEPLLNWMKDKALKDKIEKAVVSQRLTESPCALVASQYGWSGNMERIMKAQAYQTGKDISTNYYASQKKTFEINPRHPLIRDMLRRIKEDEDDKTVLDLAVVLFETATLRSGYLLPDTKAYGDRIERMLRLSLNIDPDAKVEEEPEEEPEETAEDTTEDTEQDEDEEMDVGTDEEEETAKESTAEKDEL
UniProt P15170, whole entry, looked up: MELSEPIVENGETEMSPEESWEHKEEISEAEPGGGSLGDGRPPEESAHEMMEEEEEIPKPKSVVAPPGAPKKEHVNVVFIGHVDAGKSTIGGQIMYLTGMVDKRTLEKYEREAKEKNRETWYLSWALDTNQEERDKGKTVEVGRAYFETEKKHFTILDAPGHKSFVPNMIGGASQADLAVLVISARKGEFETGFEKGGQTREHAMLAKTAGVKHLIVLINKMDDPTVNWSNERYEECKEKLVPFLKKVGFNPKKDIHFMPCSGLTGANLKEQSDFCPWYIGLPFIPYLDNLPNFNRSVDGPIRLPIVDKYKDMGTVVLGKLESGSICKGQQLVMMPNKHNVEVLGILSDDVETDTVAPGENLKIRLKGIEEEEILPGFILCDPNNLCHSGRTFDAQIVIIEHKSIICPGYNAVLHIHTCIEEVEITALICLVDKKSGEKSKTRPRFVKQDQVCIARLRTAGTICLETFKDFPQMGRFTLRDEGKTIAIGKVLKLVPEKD

compound: COC(=O)/C=C/c1ccccc1 [methyl cinnamate]; assay: log2 ratio of iodoacetamide-alkyne labeling of the cysteine site, DMSO over compound (competition); higher = stronger covalent engagement of the cysteine by the compound, active = 1 or more; conditions: 500 µM; treatment time 1 h; system: HEK293T cell lysate
Procedure, shortened: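 HEK293T lysate at 2 mg/mL was treated with vehicle or electrophile (500 µM) for 1 h at ambient temperature, then labelled with iodoacetamide alkyne (1 h), clicked to sCIP-TMT reagents, pooled, digested with trypsin overnight at 37 °C, enriched on streptavidin and eluted with acid. Peptides were analysed by Orbitrap Eclipse LC-MS/MS with FAIMS and quantified in FragPipe, using duplicate channels and three replicates, with cysteines quantified in only one replicate excluded. The log2 competition ratio for each cysteine is the mean control-channel reporter intensity divided by the mean compound-channel reporter intensity.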

log2 ratio of iodoacetamide-alkyne labeling, inactive:
U2AF1L5 C163 (UniProt P0DN76) -0.00308
UQCRH C37 (UniProt P07919) 0.344
PYGB C326 (UniProt P11216) -0.181
PABPC1 C128 (UniProt P11940) 0.0626
PDIA4 C206 (UniProt P13667) 0.557
ATP2A2 C447 (UniProt P16615) 0.0446
ACTN1 C480 (UniProt P12814) 0.0672
CDK4 C135 (UniProt P11802) 0.0581
UniProt P14618_C31 -0.176
G6PD C446 (UniProt P11413) 0.0414
AKR1B1 C299 (UniProt P15121) -0.035
ASNS C255 (UniProt P08243) -0.191
IGF2R C1408 (UniProt P11717) 0.318
ALAD C75 (UniProt P13716) 0.208
NFIC C88 (UniProt P08651) 0.2
MTHFD1 C785 (UniProt P11586) -0.066
G6PD C158 (UniProt P11413) 0.0395
G6PD C232 (UniProt P11413) -0.06
HNRNPL C472 (UniProt P14866) 0.146
HSP90B1 C576 (UniProt P14625) -0.0444
GSPT1 C261 (UniProt P15170) 0.146

Two neighbouring records out of the list so far, quoted:
log2 ratio of iodoacetamide-alkyne labeling, inactive:
ACTN1 C480 (UniProt P12814) 0.0672
CDK4 C135 (UniProt P11802) 0.0581
